PubChem BioAssay AID743121 – NCATS, 2013

Purpose: 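Partners whose loss is lethal together with topoisomerase I blockade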 (primary screen)
Cell system: MDA-MB-231 cells, a human breast cancer line
Knock-down reagent: single siRNA against human genes, 20 nM siRNA (0.8 pmol per well)
Time to read-out: 120 h (drug added 48 h after transfection, read 72 h later)
Challenge: camptothecin 20 nM (about EC30) for 72 h; vehicle 0.1% DMSO in parallel plates
Measured: 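CellTiter-Glo ATP signal, scaled to control siRNA as percent viability; sensitisation given as log2 of untreated divided by camptothecin-treated viability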
Scale: log2 vehicle/camptothecin viability: higher = stronger sensitisation to camptothecin; viability with camptothecin: higher = more viable cells
Rule for the call: 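Active genes have an RSA gene-level p-value below 0.001, computed from the ratios of their separate siRNAs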
In all, the deposit lists about 26,000 reagents; below is a part drawn at random. 167 of all reagents (0.63%) were called active. 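Calls are per gene from RSA p-values that are not deposited; an individual active-marked siRNA can sensitise only weakly.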 The numbers tell different reagents against one gene apart. Not all columns of the deposit are shown.

SLC4A4 #1 — log2 vehicle/camptothecin viability = 0.28; viability with camptothecin (% of control) = 54.2; outcome = inactive
SLC4A4 #2 — log2 vehicle/camptothecin viability = -0.392; viability with camptothecin (% of control) = 85.1; outcome = inactive
SLC4A4 #3 — log2 vehicle/camptothecin viability = -0.0241; viability with camptothecin (% of control) = 33.6; outcome = inactive
SLC4A4 #4 — log2 vehicle/camptothecin viability = -0.0356; viability with camptothecin (% of control) = 51.8; outcome = inactive
ESRRG #1 — log2 vehicle/camptothecin viability = 0.147; viability with camptothecin (% of control) = 75.1; outcome = inactive
ESRRG #2 — log2 vehicle/camptothecin viability = -0.173; viability with camptothecin (% of control) = 79.1; outcome = inactive
ESRRG #3 — log2 vehicle/camptothecin viability = 0.341; viability with camptothecin (% of control) = 84.9; outcome = inactive
GINS2 #1 — log2 vehicle/camptothecin viability = -0.271; viability with camptothecin (% of control) = 96.3; outcome = inactive
GINS2 #2 — log2 vehicle/camptothecin viability = -0.321; viability with camptothecin (% of control) = 57.3; outcome = inactive
GINS2 #3 — log2 vehicle/camptothecin viability = 0.105; viability with camptothecin (% of control) = 46.2; outcome = inactive
GINS2 #4 — log2 vehicle/camptothecin viability = -0.278; viability with camptothecin (% of control) = 74.1; outcome = inactive
ALDH4A1 #1 — log2 vehicle/camptothecin viability = -0.0205; viability with camptothecin (% of control) = 65.6; outcome = inactive
ALDH4A1 #2 — log2 vehicle/camptothecin viability = -0.351; viability with camptothecin (% of control) = 19.7; outcome = inactive
ALDH4A1 #3 — log2 vehicle/camptothecin viability = 0.93; viability with camptothecin (% of control) = 2.21; outcome = inactive
ALDH4A1 #4 — log2 vehicle/camptothecin viability = -0.345; viability with camptothecin (% of control) = 70.9; outcome = inactive
PRSS41 #1 — log2 vehicle/camptothecin viability = 0.165; viability with camptothecin (% of control) = 53; outcome = inactive
PRSS41 #2 — log2 vehicle/camptothecin viability = -0.101; viability with camptothecin (% of control) = 110; outcome = inactive
PRSS41 #3 — log2 vehicle/camptothecin viability = -0.302; viability with camptothecin (% of control) = 101; outcome = inactive
PRSS41 #4 — log2 vehicle/camptothecin viability = -0.0248; viability with camptothecin (% of control) = 109; outcome = inactive
AZIN2 #1 — log2 vehicle/camptothecin viability = 0.195; viability with camptothecin (% of control) = 67.6; outcome = inactive
AZIN2 #2 — log2 vehicle/camptothecin viability = -0.189; viability with camptothecin (% of control) = 122; outcome = inactive
AZIN2 #3 — log2 vehicle/camptothecin viability = 0.303; viability with camptothecin (% of control) = 62.8; outcome = inactive
AZIN2 #4 — log2 vehicle/camptothecin viability = -0.511; viability with camptothecin (% of control) = 65.5; outcome = inactive

Quoted from the entries so far, 4 entries:
PRSS41 #4 — log2 vehicle/camptothecin viability = -0.0248; viability with camptothecin (% of control) = 109; outcome = inactive
AZIN2 #1 — log2 vehicle/camptothecin viability = 0.195; viability with camptothecin (% of control) = 67.6; outcome = inactive
AZIN2 #2 — log2 vehicle/camptothecin viability = -0.189; viability with camptothecin (% of control) = 122; outcome = inactive
AZIN2 #3 — log2 vehicle/camptothecin viability = 0.303; viability with camptothecin (% of control) = 62.8; outcome = inactive

Next entries follow:
NCOA4 #1 — log2 vehicle/camptothecin viability = 0.0023; viability with camptothecin (% of control) = 101; outcome = inactive
NCOA4 #2 — log2 vehicle/camptothecin viability = -0.0696; viability with camptothecin (% of control) = 75.4; outcome = inactive
NCOA4 #3 — log2 vehicle/camptothecin viability = 0.515; viability with camptothecin (% of control) = 44.9; outcome = inactive
NCOA4 #4 — log2 vehicle/camptothecin viability = 0.0114; viability with camptothecin (% of control) = 55.8; outcome = inactive
A4GALT #1 — log2 vehicle/camptothecin viability = -0.604; viability with camptothecin (% of control) = 64.5; outcome = inactive
A4GALT #2 — log2 vehicle/camptothecin viability = -0.345; viability with camptothecin (% of control) = 81.9; outcome = inactive
A4GALT #3 — log2 vehicle/camptothecin viability = -0.276; viability with camptothecin (% of control) = 101; outcome = inactive
A4GALT #4 — log2 vehicle/camptothecin viability = -0.259; viability with camptothecin (% of control) = 87.4; outcome = inactive
NOTCH4 #1 — log2 vehicle/camptothecin viability = 0.107; viability with camptothecin (% of control) = 29; outcome = inactive
NOTCH4 #2 — log2 vehicle/camptothecin viability = -0.288; viability with camptothecin (% of control) = 66.3; outcome = inactive
NOTCH4 #3 — log2 vehicle/camptothecin viability = -0.327; viability with camptothecin (% of control) = 78.2; outcome = inactive
LRP1B #1 — log2 vehicle/camptothecin viability = 0.0847; viability with camptothecin (% of control) = 66.5; outcome = inactive
LRP1B #2 — log2 vehicle/camptothecin viability = -0.411; viability with camptothecin (% of control) = 15.2; outcome = inactive
LRP1B #3 — log2 vehicle/camptothecin viability = -0.192; viability with camptothecin (% of control) = 102; outcome = inactive
LRP1B #4 — log2 vehicle/camptothecin viability = -0.143; viability with camptothecin (% of control) = 116; outcome = inactive
SLC1A1 #1 — log2 vehicle/camptothecin viability = -0.26; viability with camptothecin (% of control) = 105; outcome = inactive
SLC1A1 #2 — log2 vehicle/camptothecin viability = -0.411; viability with camptothecin (% of control) = 89.2; outcome = inactive
SLC1A1 #3 — log2 vehicle/camptothecin viability = -0.253; viability with camptothecin (% of control) = 104; outcome = inactive
SLC1A1 #4 — log2 vehicle/camptothecin viability = 0.148; viability with camptothecin (% of control) = 63.6; outcome = inactive
ADAR #1 — log2 vehicle/camptothecin viability = -0.286; viability with camptothecin (% of control) = 20.2; outcome = inactive
ADAR #2 — log2 vehicle/camptothecin viability = 0.444; viability with camptothecin (% of control) = 47.9; outcome = inactive
ADAR #3 — log2 vehicle/camptothecin viability = -0.231; viability with camptothecin (% of control) = 79; outcome = inactive
ADAR #4 — log2 vehicle/camptothecin viability = 0.299; viability with camptothecin (% of control) = 59.2; outcome = inactive
